Reference: patent US20050176775A1, “Substituted pyridinones” (priority 2003, published 2005)
Some of these results come from one statement about several compounds together.

Protein sequences, listed by entry. Tags and fused reporters are not part of them.
UniProt Q16539, whole entry: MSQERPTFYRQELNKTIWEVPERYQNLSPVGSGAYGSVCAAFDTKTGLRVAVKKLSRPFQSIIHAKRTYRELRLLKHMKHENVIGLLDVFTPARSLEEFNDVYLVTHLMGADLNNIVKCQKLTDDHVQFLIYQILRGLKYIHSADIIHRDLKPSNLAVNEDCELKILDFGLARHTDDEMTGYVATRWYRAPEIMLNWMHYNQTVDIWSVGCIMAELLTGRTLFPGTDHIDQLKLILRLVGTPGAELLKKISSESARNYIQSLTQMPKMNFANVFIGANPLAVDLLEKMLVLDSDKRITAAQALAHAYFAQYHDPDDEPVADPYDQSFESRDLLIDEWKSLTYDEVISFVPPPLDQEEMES

molecular target: T1, human p38 kinase alpha (Homo sapiens, UniProt Q16539); assay: p38 alpha kinase assay (PHAS-I / 32P-ATP format or EGFRP / 33P-ATP format); type: biochemical; settings: inhibition of activated human p38 kinase alpha; the text does not say which of the two in vitro formats was used
T1 construct: made in house; host or cells: E. coli DH10B
Method: The ability of compounds to inhibit human p38 kinase alpha was evaluated using two in vitro assay methods. In the first method, activated human p38 kinase alpha phosphorylates a biotinylated substrate, PHAS-I (phosphorylated heat and acid stable protein-insulin inducible), in the presence of gamma ^32P-ATP (^32P-ATP). PHAS-I was biotinylated prior to the assay and provides a means of capturing the substrate, which is phosphorylated during the assay. p38 Kinase was activated by MKK6. Compounds were tested in 10 fold serial dilutions over the range of 100 μM to 0.001 μM using 1% DMSO. Each concentration of inhibitor was tested in triplicate.
All reactions were carried out in 96 well polypropylene plates. Each reaction well contained 25 mM HEPES pH 7.5, 10 mM magnesium acetate and 50 μM unlabeled ATP. […] Activated human p38 kinase alpha was used at 1 μg per 50 μl reaction volume representing a final concentration of 0.3 μM. Gamma ^32P-ATP was used to follow the phosphorylation of PHAS-I. ^32P-ATP has a specific activity of 3000 Ci/mmol and was used at 1.2 μCi per 50 μl reaction volume. The reaction proceeded either for one hour or overnight at 30° C.
Following incubation, 20 μl of reaction mixture was transferred to a high capacity streptavidin coated filter plate (SAM-streptavidin-matrix, Promega) prewetted with phosphate buffered saline. […] Filter plates were air-dried and 20 μl of scintillant was added. The plates were sealed and counted.
Compounds were tested in 10 fold serial dilutions over the range of 100 μM to 0.001 μM in 1% DMSO. Each concentration of inhibitor was tested in triplicate. […] Reactions were initiated by addition of 0.09 μg of activated, purified human GST-p38 kinase alpha. […] Following incubation for 60 minutes at room temperature, the reaction was stopped by addition of 150 μl of AG 1×8 resin in 900 mM sodium formate buffer, pH 3.0 (1 volume resin to 2 volumes buffer). The mixture was mixed three times with pipetting and the resin was allowed to settle. A total of 50 μl of clarified solution head volume was transferred from the reaction wells to Microlite-2 plates. 150 μl of Microscint 40 was then added to each well of the Microlite plate, and the plate was sealed, mixed, and counted.

Question: `Cc1cc(OCc2ccc(F)cc2F)c(Cl)c(=O)n1-c1cccc(C(N)=O)c1` [Example 610, 3-[3-chloro-4-[(2,4-difluorobenzyl)oxy]-6-methyl-2-oxopyridin-1(2H)-yl]benzamide] was tested. Which IC50 did it give?
Answer: The IC50 was < 1 µM.

Question: For `COCCNC(=O)c1cccc(-n2c(C)cc(OCc3ccc(F)cc3F)c(Br)c2=O)c1` [Example 286], which IC50 is on record?
Answer: The IC50 was < 1 µM.

Question: `O=c1c(Br)c(NCc2ccc(F)cc2F)ccn1Cc1cccc(F)c1` [Example 495, 3-bromo-4-[(2,4-difluorobenzyl)amino]-1-(3-fluorobenzyl)pyridin-2(1H)-one] was tested. Which IC50 did it give?
Answer: The IC50 was < 1 µM.

Question: For `Cc1cc(OCc2cccc(Cl)c2)cc(=O)n1Cc1ccccc1` [Example 38, 1-benzyl-4-[(3-chlorobenzyl)oxy]-6-methylpyridin-2(1H)-one], which IC50 is on record?
Answer: The IC50 was > 100 µM.

Question: For `Cc1cc(OCc2ccc(F)cc2F)c(Cl)c(=O)n1-c1c(F)cccc1F` [Example 421, 3-chloro-4-[(2,4-difluorobenzyl)oxy]-1-(2,6-difluorophenyl)-6-methylpyridin-2(1H)-one], which IC50 is on record?
Answer: Its IC50 is < 1 µM.

Question: `Cc1cc(OCc2ccc(F)cc2F)c(Br)c(=O)n1-c1c(F)cc(F)cc1F` [Example 313, 3-bromo-4-[(2,4-difluorobenzyl)oxy]-6-methyl-1-(2,4,6-trifluorophenyl)pyridin-2(1H)-one] was tested. Which IC50 did it give?
Answer: The IC50 was < 1 µM.

Question: Which IC50 does the source give for `CNC(=O)c1ccc(OC)c(-n2c(C)cc(OCc3ccc(F)cc3F)c(Br)c2=O)c1` [Example 521, 3-[3-bromo-4-[(2,4-difluorobenzyl)oxy]-6-methyl-2-oxopyridin-1(2H)-yl]-4-methoxy-N-methylbenzamide] here?
Answer: Its IC50 is < 1 µM.

Question: `O=c1c(Br)c(OCc2ccccc2-c2ccccc2)ccn1Cc1cccc(F)c1` [Example 121] was tested. Which IC50 did it give?
Answer: Its IC50 is > 100 µM.

Question: Which IC50 does the source give for `Cc1cc(OCc2ccc(F)cc2F)c(Br)c(=O)n1-c1cccc(C(=O)NC(C)C)c1` [Example 282] here?
Answer: Its IC50 is < 1 µM.

Question: How did the IC50 turn out when `Cc1cc(OCc2ccc(F)cc2F)c(Br)c(=O)n1Cc1cnc(C(=O)N(C)C)cn1` [Example 450, 5-{[3-bromo-4-[(2,4-difluorobenzyl)oxy]-6-methyl-2-oxopyridin-1(2H)-yl]methyl}-N,N-dimethylpyrazine-2-carboxamide] was run?
Answer: Its IC50 is < 1 µM.

Question: Which IC50 does the source give for `Cc1cc(OCc2ccc(F)cc2F)c(Br)c(=O)n1CC1CC1` [Example 423, 3-bromo-1—(Cyclopropylmethyl)-4-[(2,4-difluorobenzyl)oxy]-6-methylpyridin-2(1H)-one] here?
Answer: Its IC50 is < 1 µM.

Question: For `Cc1cc(OCc2ccc(F)cc2F)c(Br)c(=O)n1-c1c(F)cc(N2CCOCC2)cc1F` [Example 317, 3-bromo-4-[(2,4-difluorobenzyl)oxy]-1-(2,6-difluoro-4-morpholin-4-ylphenyl)-6-methylpyridin-2(1H)-one], which IC50 is on record?
Answer: The IC50 was < 1 µM.

Question: Which IC50 does the source give for `CNC(=O)c1ccc(C)c(-n2c(C)cc(OCc3ccc(F)cc3CNC(=O)OC)c(Br)c2=O)c1` [Example 643] here?
Answer: Its IC50 is < 1 µM.

Question: Which IC50 does the source give for `O=C(O)c1ccc(Cn2ccc(OCc3ccccc3)c(Br)c2=O)cc1` [Example 15] here?
Answer: Its IC50 is < 1 µM.

Question: How did the IC50 turn out when `Cc1cc(OCc2ccc(F)cc2F)c(Br)c(=O)n1-c1ccc2cn[nH]c2c1` [Example 642, 3-bromo-4-[(2,4-difluorobenzyl)oxy]-1-(1H-indazol-6-yl)-6-methylpyridin-2(1H)-one] was run?
Answer: The IC50 was < 1 µM.

Question: How did the IC50 turn out when `CNC(=O)c1ccc(C)c(-n2c(C)cc(OCc3ccc(F)cc3F)c(Cl)c2=O)c1` [Example 591, 3-[3-chloro-4-[(2,4-difluorobenzyl)oxy]-6-methyl-2-oxopyridin-1(2H)-yl]-N,4-dimethylbenzamide] was run?
Answer: Its IC50 is < 1 µM.

Question: With `CCOC(=O)c1cnc(Cn2c(C)cc(OCc3ccc(F)cc3F)c(Cl)c2=O)cn1` [Example 448, Ethyl 5-{[3-chloro-4-[(2,4-difluorobenzyl)oxy]-6-methyl-2-oxopyridin-1(2H)-yl]methyl}pyrazine-2-carboxylate] as the compound, how does the IC50 read?
Answer: The IC50 was < 1 µM.

Question: How did the IC50 turn out when `CC(C)(C)c1ccc(COc2ccn(Cc3cccc(F)c3)c(=O)c2Br)cc1` [Example 116] was run?
Answer: The IC50 was > 100 µM.

Question: `Cc1cc(OCc2ccc(F)cc2F)c(Br)c(=O)n1Cc1ccc(C(=O)N(C)CCO)cc1` [Example 230] was tested. Which IC50 did it give?
Answer: Its IC50 is < 1 µM.

Question: `Cc1cc(OCc2ccc(F)cc2F)c(Br)c(=O)n1-c1cccc(C(=O)NCCCN)c1` [Example 276] was tested. Which IC50 did it give?
Answer: Its IC50 is < 1 µM.
